This data set deals with T1, hnRNPM (UniProt P52272).
T1 sequence (looked up, limits assumed): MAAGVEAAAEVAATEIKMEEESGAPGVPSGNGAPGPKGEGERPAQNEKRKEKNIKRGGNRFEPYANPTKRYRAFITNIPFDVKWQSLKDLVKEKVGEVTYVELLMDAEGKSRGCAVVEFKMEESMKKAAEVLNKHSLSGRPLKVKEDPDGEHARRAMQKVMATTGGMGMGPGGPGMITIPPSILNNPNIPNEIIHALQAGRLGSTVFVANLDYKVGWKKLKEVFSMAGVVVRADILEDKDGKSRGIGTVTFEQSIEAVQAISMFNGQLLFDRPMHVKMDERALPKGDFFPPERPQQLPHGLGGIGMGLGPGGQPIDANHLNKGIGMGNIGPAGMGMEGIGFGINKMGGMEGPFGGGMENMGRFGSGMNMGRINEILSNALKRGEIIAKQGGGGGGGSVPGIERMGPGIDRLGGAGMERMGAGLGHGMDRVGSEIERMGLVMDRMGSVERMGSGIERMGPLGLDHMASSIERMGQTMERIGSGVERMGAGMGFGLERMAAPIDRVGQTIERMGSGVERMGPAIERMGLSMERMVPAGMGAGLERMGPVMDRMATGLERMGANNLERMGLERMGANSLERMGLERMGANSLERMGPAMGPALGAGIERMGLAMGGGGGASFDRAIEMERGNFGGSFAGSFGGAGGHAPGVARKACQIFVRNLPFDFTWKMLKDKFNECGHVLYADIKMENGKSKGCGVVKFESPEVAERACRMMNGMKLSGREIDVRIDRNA
In words: pull-down, MS and Western blot. The note with it: MSC lysate; 3' biotin-TEG; pull-down: streptavidin beads, cell lysis buffer, 2 h at 4 C; protein in an extract; label: biotin; single-stranded DNA.

The exact form of at least one protein or probe is not confirmed. At least one result comes from cells or an extract, where the contact may be indirect. At least one verdict rests on a figure or table, not on a statement of the authors. Protein sequences can lack the tags named with them.

The text below walks through data of paper PMC11283696.

On to “CTCTTTTAATGTTCTAATGTTTTCT [biotin-LINC00698 (synthesized probe)]”, for which the binding result is listed as “binds”.
